Reference: PubChem BioAssay AID540276 (National Center for Advancing Translational Sciences (NCATS), 2011)
Among all 300,000 compounds or so, about 5,400 (1.8%) were called active. This list was built around the results that the source calls inconclusive (neither active nor inactive); the mix of calls is not that of the screen. Calls follow the shape of the full dose curve; tested in HEK293 cells. A potency beside an inconclusive call is a rough fit, not a confirmed value.

Assay: qHTS for inhibitors of binding or entry into cells for Marburg Virus
Conditions: Marburg virus pseudotyped entry inhibition, cell reporter; activity change, negative = inhibition: at 37.8 µM (top of the series) unless noted
% is scaled to controls: 0 for no effect and ±100 for the full control effect; potency is read from the fitted curve at half-maximal effect.

SMILES | Potency | activity change, negative = inhibition
Cc1ccc(-c2nc3cc(NC(=O)C(C)C)ccc3o2)cc1C | inconclusive: 18.3 µM [inhibitor, single point] | 
O=C(Nc1nccs1)c1cc(-c2ccncc2)nc2ccccc12 | inconclusive: 23.1 µM [inhibitor, partial curve, poor fit] | 
COc1ccc(NC(=O)Cn2cnc3ccc(S(=O)(=O)N4CCC(C)CC4)cc3c2=O)c(OC)c1 |  | inactive: -26.2% [at 46.1 µM]
COc1ccc2c(c1)Cc1sc(NC(=O)c3ccccc3C)nc1-2 | inconclusive: 3.98 µM [activator, full curve, poor fit] | 
CC(C)CC(=O)Nc1nnc(SCC(=O)NCC2CCCO2)s1 (stereo not given) |  | inactive: 29.4%
O=S(=O)(Cc1cc(Cl)nc(-c2ccncc2)n1)c1ccccc1 | inconclusive: 35.5 µM [inhibitor, single point] | 
O=C(c1ccc(F)cc1)C1CCN(C(=O)c2ccccc2)CC1 | inconclusive: 1.12 µM [inhibitor, partial curve] | 
c1ccc(SCCOCCN2CCOCC2)cc1 |  | inactive: -2.21%
COc1cc(C(=O)N/N=C/c2cn(Cc3cccc(F)c3)c3ccccc23)ccc1O |  | inactive: -3.21%
Cc1ccc(C)c(-n2nnnc2SCC(=O)NCCC2=CCCCC2)c1 | inconclusive: 29.1 µM [inhibitor, single point] | 
CN1C(=O)/C(=C/c2ccc(C(F)(F)F)cc2)Sc2ccc(C(=O)N3CCN(c4ccccn4)CC3)cc21 | inconclusive: 3.98 µM [inhibitor, full curve] | 
CCc1ccccc1NC(=O)N1C2CCCC1CC(NC(=O)C(C)(C)C)C2 (stereo not given) | inconclusive: 5.62 µM [activator, single point] | 
COc1cccc(C(=O)Nc2ccc(Oc3cccc(C(F)(F)F)c3)nc2)c1 | active: 8.91 µM | 
COc1ccc(CN2C(=O)CN=C2Nc2cc(C)ccc2C)cc1 | inconclusive: 11.2 µM [inhibitor, partial curve, poor fit] | 
Cc1cc(C(=O)N2CCN(c3ccccc3)CC2)c(C)o1 |  | inactive: -2.01%
CSc1cccc(NC(=S)N(CCCN2CCCC2)Cc2cccn2Cc2ccc(Cl)cc2)c1 | active: 6.31 µM | 
O=C(COc1cccc(Br)c1)Nc1ccc(Cl)c(S(=O)(=O)N2CCOCC2)c1 | inconclusive: 22.4 µM [inhibitor, single point] | 
CC(C(=O)NC(C)(C)C)N(Cc1cccs1)C(=O)CCN1CCc2ccccc21 (stereo not given) | inconclusive: 20 µM [inhibitor, partial curve, poor fit] | 

Looked up one by one from above (2):
SMILES | Potency | activity change, negative = inhibition
c1ccc(SCCOCCN2CCOCC2)cc1 |  | inactive: -2.21%
COc1ccc2c(c1)Cc1sc(NC(=O)c3ccccc3C)nc1-2 | inconclusive: 3.98 µM [activator, full curve, poor fit] | 

Additional structures follow:

SMILES | Potency | activity change, negative = inhibition
COc1cccc(OC)c1C(=O)N1CCN(Cc2ccccc2C(F)(F)F)CC1 | inconclusive: 2.82 µM [inhibitor, partial curve, poor fit] | 
CCN(CC)S(=O)(=O)c1ccc(/C=C/C(=O)Nc2ccc(Br)cc2F)cc1 | active: 6.51 µM | 
Cn1ccc(CC(=O)N2CCC(N3CCC(C(=O)N4CCCC4)CC3)CC2)c1 | inconclusive: 11.2 µM [activator, partial curve, poor fit] | 
CC(C)c1ccccc1NC(=S)NC1CCN(Cc2ccccc2)CC1 | inconclusive: 11.2 µM [inhibitor, partial curve, poor fit] | 
CCCn1c(=N)n(CC(=O)OCC)c2ccccc21 |  | inactive: -0.899%
CC(=O)Nc1sc2c(c1C(=O)N1CCOCC1)CCCCC2 | inconclusive: 6.31 µM [activator, single point] | 
CN(C)S(=O)(=O)c1cccc(NC(=O)c2c[nH]c3ccccc23)c1 | inconclusive: 35.5 µM [inhibitor, single point] | 
COc1ccc(/C=C2\CCC(C3CCCC3)C2=O)cc1OC (stereo not given) | inconclusive: 0.562 µM [activator, single point] | 
Nn1c(-c2cccs2)nc2sc3c(c2c1=O)CCCC3 | inconclusive: 15.8 µM [inhibitor, single point] | 
O=C(CN1C(=O)NC2(CCCC2)C1=O)N1CCN(S(=O)(=O)c2ccccc2[N+](=O)[O-])CC1 |  | inactive: 5.77%
CCN(CC)c1ccc(C(=C2C=CC(=[N+](CC)CC)C=C2)c2ccccc2)cc1 | inconclusive: 0.251 µM [inhibitor, full curve, poor fit] | 
Cc1ccc(C)c(OCc2cc(C(=O)N3CC[C@@H]4CCCC[C@H]4C3)no2)c1 | inconclusive: 5.62 µM [activator, single point] | 
O=C(Nc1cccc([N+](=O)[O-])c1)N1CCc2ccccc2C1 | inconclusive: 5.62 µM [activator, single point] | 
Cc1ccc(N(CC(=O)NC(C)c2ccccc2)S(=O)(=O)c2c(C)n[nH]c2C)cc1 (stereo not given) | inconclusive: 3.55 µM [activator, partial curve, poor fit] | 
CCc1ccc(-n2nc(CO)c(C(=O)NC(C)c3ccc(Cl)cc3)n2)cc1 (stereo not given) |  | inactive: -1.81% [at 46.1 µM]
Cc1cccc(NC(=O)Nc2ccc(OCc3ccccc3)cc2)n1 | inconclusive: 28.2 µM [inhibitor, single point] | 
O=C(N/N=C/c1ccccc1)c1cc(=O)[nH]c2ccccc12 | inconclusive: 29.1 µM [inhibitor, single point] | 
